The text below walks through data of article PMC7801493.

Protein sequences, listed by entry. Tags and fused reporters are not part of them. Residues count along the entry.
UniProt P38646, residues 47-679: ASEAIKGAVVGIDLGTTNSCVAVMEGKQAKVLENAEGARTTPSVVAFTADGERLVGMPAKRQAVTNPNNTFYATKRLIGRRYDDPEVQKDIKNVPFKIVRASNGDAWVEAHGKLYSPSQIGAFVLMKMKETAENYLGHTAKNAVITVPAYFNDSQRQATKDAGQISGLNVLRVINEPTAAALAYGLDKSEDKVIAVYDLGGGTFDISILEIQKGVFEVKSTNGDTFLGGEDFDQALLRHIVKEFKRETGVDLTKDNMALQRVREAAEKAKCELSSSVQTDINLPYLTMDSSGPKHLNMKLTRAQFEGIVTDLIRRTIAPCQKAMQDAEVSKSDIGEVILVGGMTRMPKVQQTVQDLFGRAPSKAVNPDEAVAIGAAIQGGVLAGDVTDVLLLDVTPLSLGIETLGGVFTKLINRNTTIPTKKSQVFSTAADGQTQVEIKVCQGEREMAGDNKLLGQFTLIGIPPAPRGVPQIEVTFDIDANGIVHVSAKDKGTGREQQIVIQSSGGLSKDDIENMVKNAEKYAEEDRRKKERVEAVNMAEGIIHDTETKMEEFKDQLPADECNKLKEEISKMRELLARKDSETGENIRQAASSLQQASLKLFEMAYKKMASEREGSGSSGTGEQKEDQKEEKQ
UniProt O76031, residues 57-633: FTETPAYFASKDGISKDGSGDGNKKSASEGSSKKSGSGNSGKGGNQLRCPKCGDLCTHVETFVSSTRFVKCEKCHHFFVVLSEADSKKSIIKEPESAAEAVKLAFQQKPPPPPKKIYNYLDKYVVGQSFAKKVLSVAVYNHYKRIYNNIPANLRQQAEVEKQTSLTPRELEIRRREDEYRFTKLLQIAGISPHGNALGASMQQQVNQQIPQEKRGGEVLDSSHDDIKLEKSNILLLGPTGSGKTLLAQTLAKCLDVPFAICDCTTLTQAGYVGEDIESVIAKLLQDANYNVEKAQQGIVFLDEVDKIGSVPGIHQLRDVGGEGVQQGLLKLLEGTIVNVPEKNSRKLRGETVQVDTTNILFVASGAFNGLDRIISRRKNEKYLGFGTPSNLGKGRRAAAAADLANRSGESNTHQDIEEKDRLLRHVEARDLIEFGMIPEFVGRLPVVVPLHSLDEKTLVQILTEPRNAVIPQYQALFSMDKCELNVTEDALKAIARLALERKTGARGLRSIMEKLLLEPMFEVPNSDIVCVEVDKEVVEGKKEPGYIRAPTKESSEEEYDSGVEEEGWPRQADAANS

Substitutions are numbered along the chain they refer to. No constants are given. Whether binding was seen depends on the method and setting. Binding seen in cells or lysates may run through a third protein. Some results given as binding are weak or reduced against the parent protein; the word gives no strength. For some assays here: Where a sequence is shown, tags or fusion partners need not be part of it.

In test [1] the target is T1, recombinant protease-deficient LONP1^S855A (human) (UniProt P36776).
T1 sequence: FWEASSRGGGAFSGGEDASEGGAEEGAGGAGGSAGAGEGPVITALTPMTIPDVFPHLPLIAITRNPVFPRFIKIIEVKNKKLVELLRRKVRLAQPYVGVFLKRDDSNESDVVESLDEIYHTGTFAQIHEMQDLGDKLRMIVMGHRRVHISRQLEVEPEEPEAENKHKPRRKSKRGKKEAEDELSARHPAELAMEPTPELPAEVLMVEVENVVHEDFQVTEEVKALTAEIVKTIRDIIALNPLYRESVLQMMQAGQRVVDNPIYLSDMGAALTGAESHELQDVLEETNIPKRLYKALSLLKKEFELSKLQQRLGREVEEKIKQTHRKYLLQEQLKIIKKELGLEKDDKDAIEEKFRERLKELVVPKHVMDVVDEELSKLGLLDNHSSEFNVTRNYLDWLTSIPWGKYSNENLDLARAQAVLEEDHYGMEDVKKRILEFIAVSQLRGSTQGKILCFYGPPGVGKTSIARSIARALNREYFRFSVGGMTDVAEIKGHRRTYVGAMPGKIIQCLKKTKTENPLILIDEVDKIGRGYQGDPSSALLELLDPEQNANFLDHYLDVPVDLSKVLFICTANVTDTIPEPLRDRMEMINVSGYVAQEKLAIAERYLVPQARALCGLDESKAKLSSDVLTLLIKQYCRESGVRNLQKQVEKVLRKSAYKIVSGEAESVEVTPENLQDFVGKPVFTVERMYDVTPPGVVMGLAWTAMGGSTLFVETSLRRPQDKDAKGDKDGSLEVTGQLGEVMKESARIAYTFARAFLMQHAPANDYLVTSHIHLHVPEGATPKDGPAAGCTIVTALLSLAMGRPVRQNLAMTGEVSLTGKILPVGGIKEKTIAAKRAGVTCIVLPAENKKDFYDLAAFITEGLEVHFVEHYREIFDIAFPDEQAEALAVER
As to the kind of experiment: co-IP; CLPX translated in vitro (PURExpress, 8 h, 37 °C) in the presence of recombinant LONP1 S855A; supernatant after 186,000g incubated with anti-LONP1 antibody for 2 h at 4 °C, then Protein A/G-agarose; Western blot; only the target purified.

Test [2] has as its target T2, FLAG-tagged CODAS LONP1^R721G expressed in 143B cells (human) (UniProt P36776).
T2 sequence: T1 sequence with R654G, A788S
The test is described as follows: co-IP; FLAG-tagged LONP1 (WT or R721G) as bait on ANTI-FLAG M2 Affinity Gel, 30 min at 4 °C; cleared 143B lysates in IP buffer (20 mM Tris-HCl pH 7.4, 150 mM NaCl, 1 mM EDTA, 5% glycerol, 1% Igepal CA-630); Western blot. On the technique in general: A western blot detects proteins with antibodies after separation by electrophoresis.

Test [3] addresses T3, FLAG-tagged LONP1^WT expressed in 143B cells (human) (UniProt P36776).
T3 sequence: T1 sequence with A788S
The test is described as above.

The target in test [4] is mtHSP70-FLAG (FLAG-tagged mitochondrial HSP70), constitutively expressed (human) (UniProt P38646). The test is described as follows: co-IP; mtHSP70-FLAG as bait on ANTI-FLAG M2 Affinity Gel, 30 min at 4 °C; cleared cell lysates in IP buffer (20 mM Tris-HCl pH 7.4, 150 mM NaCl, 1 mM EDTA, 5% glycerol, 1% Igepal CA-630); Western blot; cells with non-target, DNAJA3 or GRPEL1 knock-down, in glucose or galactose with or without 5 uM oligomycin (143B), or control and LONP1 patient fibroblasts.

Test [5] has as its target mtHSP70-FLAG expressed in control or LONP1 patient fibroblasts (human) (UniProt P38646). The test is described as above.

Turning to “CLPX (amino acid residues 57-633), in vitro translated (from UniProt O76031 57-633) (domain or fragment)”, the binding result in test [1] is recorded as “binds”. As for “mtHSP70, endogenous in 143B cells (from UniProt P38646 47-679)”, the binding result in test [2] and in test [3] was “binds” each time.

B1: LONP1, endogenous in 143B cells (protein, UniProt P36776-1 68-959)
chain: T1 sequence with A788S
As for B1, the binding result in test [4] is “binds”.

B2: LONP1, endogenous in control fibroblasts (protein, UniProt P36776-1 68-959)
chain: T1 sequence with A788S
In the case of B2, the binding result in test [5] is reported as “binds”.
